Data reported in ChEMBL document CHEMBL4842372, “Discovery of ARD-2585 as an Exceptionally Potent and Orally Active PROTAC Degrader of Androgen Receptor for the Treatment of Advanced Prostate Cancer” (J Med Chem, 2021).

Test system: LNCaP
Experiment: Growth inhibition of human LNCaP cells carrying AR T878A mutant assessed as cell viability by WST-8 assay
Format: functional, cell-based

With `CNC(=O)c1ccc(N2C(=S)N(c3ccc(C#N)c(C(F)(F)F)c3)C(=O)C2(C)C)cc1F` [ENZALUTAMIDE] as the compound, how does the IC50 read?
Its IC50 is 133 nM.
